Data on 1 molecule can be found in publication PMC11618752.

Protein sequences, listed by entry. Tags and fused reporters are not part of them.
UniProt Q9BRJ7: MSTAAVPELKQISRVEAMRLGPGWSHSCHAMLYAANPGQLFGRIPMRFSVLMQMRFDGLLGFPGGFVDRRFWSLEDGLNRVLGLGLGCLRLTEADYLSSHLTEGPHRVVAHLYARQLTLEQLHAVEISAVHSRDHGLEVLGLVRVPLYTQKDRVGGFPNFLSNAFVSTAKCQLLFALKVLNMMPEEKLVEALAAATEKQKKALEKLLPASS

No constants are given. Whether binding was seen depends on the method and setting. Binding seen in cells or lysates may run through a third protein. These calls come from enrichment with a bait or labelling near it, and not all partners need be listed.

The target of this assay is Flag-tagged wild-type TIRR (UniProt Q9BRJ7). Nature of the assay: affinity purification with mass spectrometry; 293T cells transfected with Flag-TIRR, with or without IR (4 Gy); lysed in IP buffer, Flag-conjugated agarose beads, eluted with 2% SDS, LC-MS.

B1: TRIM56, endogenous (enzyme, UniProt Q9BRZ2 1-755)
chain: MVSHGSSPSLLEALSSDFLACKICLEQLRAPKTLPCLHTYCQDCLAQLADGGRVRCPECRETVPVPPEGVASFKTNFFVNGLLDLVKARACGDLRAGKPACALCPLVGGTSTGGPATARCLDCADDLCQACADGHRCTRQTHTHRVVDLVGYRAGWYDEEARERQAAQCPQHPGEALRFLCQPCSQLLCRECRLDPHLDHPCLPLAEAVRARRPGLEGLLAGVDNNLVELEAARRVEKEALARLREQAARVGTQVEEAAEGVLRALLAQKQEVLGQLRAHVEAAEEAARERLAELEGREQVARAAAAFARRVLSLGREAEILSLEGAIAQRLRQLQGCPWAPGPAPCLLPQLELHPGLLDKNCHLLRLSFEEQQPQKDGGKDGAGTQGGEESQSRREDEPKTERQGGVQPQAGDGAQTPKEEKAQTTREEGAQTLEEDRAQTPHEDGGPQPHRGGRPNKKKKFKGRLKSISREPSPALGPNLDGSGLLPRPIFYCSFPTRMPGDKRSPRITGLCPFGPREILVADEQNRALKRFSLNGDYKGTVPVPEGCSPCSVAALQSAVAFSASARLYLINPNGEVQWRRALSLSQASHAVAALPSGDRVAVSVAGHVEVYNMEGSLATRFIPGGKASRGLRALVFLTTSPQGHFVGSDWQQNSVVICDGLGQVVGEYKGPGLHGCQPGSVSVDKKGYIFLTLREVNKVVILDPKGSLLGDFLTAYHGLEKPRVTTMVDGRYLVVSLSNGTIHIFRVRSPDS
For B1, the binding result is “binds”.
